Measurements from PubChem BioAssay AID2810 (NMMLSC, 2010).
The other results are listed elsewhere or left out. Shown are side measurements of this screen, not its main read-out; they come without a call.

Test: modulators of CD8 T cell-vesicle binding, confirmation, cherry-picked primary hits, two concentrations (AID 2810);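 further: lower values mean blocking of vesicle binding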;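 on percent response (vesicle binding): ratio of mean FL2 vesicle stain of CD8+ cells to that row's control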
Conditions: 2C CD8+ T cell-vesicle binding, flow cytometry; for double positive events: CD8+/vesicle+ events
[1] = at 15.4 µM, stronger effect = lower value

Compound: COC(=O)c1ccc(N2CCOCC2)c(NC(=O)c2ccco2)c1
- double positive events (at 7.7 µM): 19.1%
- double positive events [1]: 10.6%
- percent response (vesicle binding) (at 7.7 µM): 237%

Compound: C=CCc1ccc(OCCOCCOc2cccc3cccnc23)c(OC)c1
- double positive events (at 7.7 µM): 12.6%
- double positive events [1]: 16.8%
- percent response (vesicle binding) (at 7.7 µM): 156%

Compound: O=C(c1cc(Cl)ccc1Cl)N1CCN(c2ccccn2)CC1
- double positive events (at 7.7 µM): 7.4%
- double positive events [1]: 38.6%
- percent response (vesicle binding) (at 7.7 µM): 228%

Compound: O=C(CN1CCN(C2CCCCC2)CC1)Nc1ccccc1N1CCCCC1
- double positive events (at 7.7 µM): 7.6%
- double positive events [1]: 21.9%
- percent response (vesicle binding) (at 7.7 µM): 188%

Compound: COc1cc(C(=O)Nc2nnc(-c3sccc3C)s2)cc(OC)c1OC
- double positive events (at 7.7 µM): 15.2%
- double positive events [1]: 11.1%
- percent response (vesicle binding) (at 7.7 µM): 576%

Compound: Cc1nc(SCC(=O)N2CCNC2=O)c2ccccc2n1
- double positive events (at 7.7 µM): 17.9%
- double positive events [1]: 10.6%
- percent response (vesicle binding) (at 7.7 µM): 667%

Compound: CCOc1ccc(Cl)cc1/C=N/NC(=O)c1ccccc1
- double positive events (at 7.7 µM): 24.1%
- double positive events [1]: 30.4%
- percent response (vesicle binding) (at 7.7 µM): 335%

Compound: Cc1[nH]c2ccc(F)cc2c(=O)c1SC(F)(F)C(F)C(F)(F)F (centres undefined)
- double positive events (at 7.7 µM): 10.7%
- double positive events [1]: 28.5%
- percent response (vesicle binding) (at 7.7 µM): 266%

Compound: CCCCN(C)CCCNC(=O)Cn1c(=O)sc2ccccc21
- double positive events (at 7.7 µM): 16.5%
- double positive events [1]: 10.6%
- percent response (vesicle binding) (at 7.7 µM): 215%

Compound: CSc1ccccc1NC(=O)CSc1cccc[n+]1[O-]
- double positive events (at 7.7 µM): 15.1%
- double positive events [1]: 35.6%
- percent response (vesicle binding) (at 7.7 µM): 198%

Compound: COC(=O)c1ccc2c(=O)[nH]c(CSc3nc(-c4ccc(F)cc4)cs3)nc2c1
- double positive events (at 7.7 µM): 11.9%
- double positive events [1]: 29.3%
- percent response (vesicle binding) (at 7.7 µM): 189%

Compound: Cc1cc(C(=O)Nc2ccc(Br)cn2)sc1C
- double positive events (at 7.7 µM): 13.8%
- double positive events [1]: 16.5%
- percent response (vesicle binding) (at 7.7 µM): 401%

Compound: COCCn1c(C)cc(C(=O)CN2C(=O)NC3(CCCCCCC3)C2=O)c1C
- double positive events (at 7.7 µM): 13.7%
- double positive events [1]: 14.2%
- percent response (vesicle binding) (at 7.7 µM): 230%

Compound: COc1ccc(C2=NS(=O)(=O)N(C)C(C(=O)N(C)Cc3ccccc3)=C2)cc1OC
- double positive events (at 7.7 µM): 8.8%
- double positive events [1]: 19.1%
- percent response (vesicle binding) (at 7.7 µM): 170%

Compound: COc1cccc(CN2CCN(S(=O)(=O)c3ccc(Cl)s3)CC2)c1
- double positive events (at 7.7 µM): 11.2%
- double positive events [1]: 32.2%
- percent response (vesicle binding) (at 7.7 µM): 192%

Compound: COc1ccc(CNC(=O)c2nnn(Cc3ccc(OC)cc3)c2N)cc1
- double positive events (at 7.7 µM): 35.5%
- double positive events [1]: 13%
- percent response (vesicle binding) (at 7.7 µM): 128%

Compound: CCc1ccc(S(=O)(=O)NCc2cccs2)cc1
- double positive events (at 7.7 µM): 33.6%
- double positive events [1]: 23.1%
- percent response (vesicle binding) (at 7.7 µM): 293%

Compound: CN(C(=O)COc1ccc(Oc2ccccc2)cc1)C1CCS(=O)(=O)C1 (centres undefined)
- double positive events (at 7.7 µM): 9.1%
- double positive events [1]: 26.8%
- percent response (vesicle binding) (at 7.7 µM): 247%

Compound: COc1cc(/C=N/NC(=O)c2ccc(NS(=O)(=O)c3cccs3)cc2)cc(OC)c1O
- double positive events (at 7.7 µM): 12.7%
- double positive events [1]: 10.2%
- percent response (vesicle binding) (at 7.7 µM): 422%

Compound: O=C(COC(=O)c1ccc(S(=O)(=O)N2CCOCC2)cc1)Nc1ccccc1OC(F)F
- double positive events (at 7.7 µM): 12.3%
- double positive events [1]: 12.5%
- percent response (vesicle binding) (at 7.7 µM): 138%

Compound: Cc1ccc(NC(=O)CN2CCCC2c2cccs2)cc1S(=O)(=O)N1CCCCC1 (centres undefined)
- double positive events (at 7.7 µM): 8.1%
- double positive events [1]: 23.1%
- percent response (vesicle binding) (at 7.7 µM): 226%

Compound: CN1CCN(S(=O)(=O)c2ccc3[nH]c(=O)oc3c2)CC1
- double positive events (at 7.7 µM): 9.7%
- double positive events [1]: 11.1%
- percent response (vesicle binding) (at 7.7 µM): 151%

Compound: CC(C)NC(=O)NC(=O)CSc1nnc(COc2ccccc2F)n1C(C)C1CC2CCC1C2 (centres undefined)
- double positive events (at 7.7 µM): 18.6%
- double positive events [1]: 15.1%
- percent response (vesicle binding) (at 7.7 µM): 263%

Compound: C[C@H](CO)N1C[C@H](C)[C@@H](CN(C)C(=O)Nc2ccccc2)Oc2ccc(NC(=O)c3ccncc3)cc2C1=O
- double positive events (at 7.7 µM): 12.2%
- double positive events [1]: 16.8%
- percent response (vesicle binding) (at 7.7 µM): 453%

Compound: O=C1CC(c2ccc(Br)cc2)NC(c2ccc(Br)cc2)C1c1ccccc1 (centres undefined)
- double positive events (at 7.7 µM): 27.1%
- double positive events [1]: 10.8%
- percent response (vesicle binding) (at 7.7 µM): 172%

Compound: CC1CC(NNC(=O)c2ccccc2)=Nc2ccccc2N1C (centres undefined)
- double positive events (at 7.7 µM): 15.1%
- double positive events [1]: 34%
- percent response (vesicle binding) (at 7.7 µM): 254%

Compound: CCCNC(=O)C(Cc1ccccc1F)NC(=O)c1ccccn1 (centres undefined)
- double positive events (at 7.7 µM): 35.6%
- double positive events [1]: 26.4%
- percent response (vesicle binding) (at 7.7 µM): 281%

Compound: CC(C)CN(Cc1cc(=O)oc2cc3c(cc12)CCCC3)CC(C)C
- double positive events (at 7.7 µM): 8.4%
- double positive events [1]: 27.3%
- percent response (vesicle binding) (at 7.7 µM): 95.5%

Compound: O=C(O)c1cccc2c1C(=O)c1ccc(N3CCCC3)cc1S2(=O)=O
- double positive events (at 7.7 µM): 37.3%
- double positive events [1]: 13.4%
- percent response (vesicle binding) (at 7.7 µM): 388%

Compound: Cc1ccc(C)c(OCc2cc(C(=O)N(C)Cc3nccn3C)no2)c1
- double positive events (at 7.7 µM): 11%
- double positive events [1]: 34.9%
- percent response (vesicle binding) (at 7.7 µM): 170%

Compound: Cc1ccc(S(=O)(=O)N(C)CC(=O)N2CCc3ccccc32)cc1
- double positive events (at 7.7 µM): 38.6%
- double positive events [1]: 15.7%
- percent response (vesicle binding) (at 7.7 µM): 296%

Compound: O=C1C2C3c4ccccc4C(c4ccccc43)[C@@H]2C(=O)N1c1cccnc1 (some centres undefined)
- double positive events (at 7.7 µM): 7.7%
- double positive events [1]: 27.5%
- percent response (vesicle binding) (at 7.7 µM): 106%

Compound: COC(=O)C1=C(C)N(c2cccc(C(C)=O)c2)C(=O)C1
- double positive events (at 7.7 µM): 12.4%
- double positive events [1]: 23.5%
- percent response (vesicle binding) (at 7.7 µM): 459%

Compound: COc1cc(C(=O)OCC(=O)N2CCCC2)cc2c1OCCO2
- double positive events (at 7.7 µM): 28.6%
- double positive events [1]: 9.7%
- percent response (vesicle binding) (at 7.7 µM): 309%

Compound: COCC(C)NC(=O)c1noc2c1CCc1cc(OC)ccc1-2 (centres undefined)
- double positive events (at 7.7 µM): 11.8%
- double positive events [1]: 23.6%
- percent response (vesicle binding) (at 7.7 µM): 182%

Compound: COc1cc(/C=C(/C#N)c2ccccc2F)ccc1OCc1ccccc1
- double positive events (at 7.7 µM): 15%
- double positive events [1]: 19.4%
- percent response (vesicle binding) (at 7.7 µM): 128%

Compound: CCn1cc(CN(C)C(=O)/C=C/c2ccc([N+](=O)[O-])cc2)c(C)n1
- double positive events (at 7.7 µM): 18.8%
- double positive events [1]: 7%
- percent response (vesicle binding) (at 7.7 µM): 170%

Compound: CC(C)c1ccc(S(=O)(=O)N2CCC3(CC2)OCCO3)cc1
- double positive events (at 7.7 µM): 12.8%
- double positive events [1]: 7.5%
- percent response (vesicle binding) (at 7.7 µM): 131%

Compound: O=C(NNC(=O)c1ccc(-n2cncn2)c([N+](=O)[O-])c1)c1ccccc1
- double positive events (at 7.7 µM): 38.9%
- double positive events [1]: 12.8%
- percent response (vesicle binding) (at 7.7 µM): 433%

Compound: CCOC(=O)c1nnn(-c2nonc2-n2cccc2)c1CN1CCC(C(=O)OCC)CC1
- double positive events (at 7.7 µM): 26%
- double positive events [1]: 24.1%
- percent response (vesicle binding) (at 7.7 µM): 183%

Compound: COCCn1c(C)cc(C(=O)CSc2nnc(C3CC3)n2C2CC2)c1C
- double positive events (at 7.7 µM): 28.6%
- double positive events [1]: 6.3%
- percent response (vesicle binding) (at 7.7 µM): 128%

Compound: CC1CN(C2=CC(=O)CCC2)CC(C)O1 (centres undefined)
- double positive events (at 7.7 µM): 12.8%
- double positive events [1]: 13.7%
- percent response (vesicle binding) (at 7.7 µM): 181%

Compound: Cn1ncc(Br)c1C(=O)N1CCCCCC1
- double positive events (at 7.7 µM): 11.2%
- double positive events [1]: 8.7%
- percent response (vesicle binding) (at 7.7 µM): 153%

Compound: C=C(C)CSc1cc(C)nc2c(-c3ccccc3)c(C)nn12
- double positive events (at 7.7 µM): 13.6%
- double positive events [1]: 24.8%
- percent response (vesicle binding) (at 7.7 µM): 409%

Compound: Cc1ccc(NC(=O)CN2C(=O)N/C(=C/c3ccc(C)s3)C2=O)cc1
- double positive events (at 7.7 µM): 35.7%
- double positive events [1]: 14.1%
- percent response (vesicle binding) (at 7.7 µM): 424%

Compound: C/C(=N\NC(=O)c1ccc(C(=O)N/N=C(\C)c2ccco2)o1)c1ccco1
- double positive events (at 7.7 µM): 23.4%
- double positive events [1]: 20.3%
- percent response (vesicle binding) (at 7.7 µM): 243%

Compound: Cc1ccc2sc(C)[n+](CCC(C)S(=O)(=O)[O-])c2c1 (centres undefined)
- double positive events (at 7.7 µM): 8%
- double positive events [1]: 22.4%
- percent response (vesicle binding) (at 7.7 µM): 176%

Compound: COc1ccccc1N1CCN(C(=O)C2CCCN(S(=O)(=O)c3ccc(C)cc3)C2)CC1 (centres undefined)
- double positive events (at 7.7 µM): 27.6%
- double positive events [1]: 17.8%
- percent response (vesicle binding) (at 7.7 µM): 196%

Compound: O=C(Cc1cccs1)Nc1cc(S(=O)(=O)N2CCCCC2)ccc1Cl
- double positive events (at 7.7 µM): 10.9%
- double positive events [1]: 12%
- percent response (vesicle binding) (at 7.7 µM): 385%

Compound: Cc1cc(SC(C)C(=O)NCC(=O)Nc2ccc(F)c(F)c2F)nc2ccccc12 (centres undefined)
- double positive events (at 7.7 µM): 21.4%
- double positive events [1]: 22%
- percent response (vesicle binding) (at 7.7 µM): 411%

Compound: COc1ccc(C(CNCC(=O)Nc2ccccc2F)N(C)C)cc1 (centres undefined)
- double positive events (at 7.7 µM): 9.9%
- double positive events [1]: 21.4%
- percent response (vesicle binding) (at 7.7 µM): 154%

Compound: CC1CCC(C(C)C)C(OC(=O)COC(=O)c2cc(O)ccc2N)C1 (centres undefined)
- double positive events (at 7.7 µM): 16.7%
- double positive events [1]: 14.3%
- percent response (vesicle binding) (at 7.7 µM): 284%

Compound: CCOc1cccc(C(=O)Nc2ccccc2N2CCN(C(=O)C(C)C)CC2)c1
- double positive events (at 7.7 µM): 11.7%
- double positive events [1]: 14.6%
- percent response (vesicle binding) (at 7.7 µM): 243%
